PubChem BioAssay AID504774, Drosophila RNAi Screening Center, 2011
Purpose: 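Fly genes whose loss alters survival after alkylation damage to DNA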 (primary screen). System: Drosophila Kc167 cells. Reagent: long dsRNA against Drosophila genes, about 0.25 µg dsRNA per well. Duration: about 6 days: 3 days knock-down, then 3 days with or without MMS. Conditions: methyl methanesulphonate 0.004% (w/v) for 3 days after knock-down. Read-out: 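ATP-dependent luminescence as a measure of live cells in MMS-exposed wells, quantile normalised within each plate, with replicate values also given as a mean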. Direction: mean viability with MMS and viability with MMS: higher = more surviving cells after MMS.
In all, the deposit lists about 23,000 reagents; this is a random part of those with a known target gene and a result. 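Values are quantile-normalised luminescence on an arbitrary scale; higher means more cells surviving MMS.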 A plus sign joins genes that one reagent is predicted to hit.

The opening 8 records, to show the layout:
| target gene | DRSC id | mean viability with MMS | viability with MMS, replicate 1 | viability with MMS, replicate 2 |
| --- | --- | --- | --- | --- |
| CG13344 (GeneID 36541) | DRSC06378 | 3.72e6 | 4.22e6 | 4.22e6 |
| CG12362 (GeneID 39193) | DRSC09884 | 3.45e6 | 4.07e6 | 3.75e6 |
| mRpL13 (GeneID 35145) | DRSC02076 | 3.69e6 | 4.19e6 | 4.13e6 |
| obst-I (GeneID 317966) | DRSC08339 | 3.41e6 | 3.88e6 | 3.88e6 |
| CG4766 (GeneID 31533) | DRSC17736 | 3.89e6 | 4.74e6 | 4.17e6 |
| CG17776 (GeneID 50373) | DRSC18136 | 3.66e6 | 4.08e6 | 4.19e6 |
| brun (GeneID 35325) | DRSC02706 | 3.45e6 | 3.99e6 | 3.81e6 |
| CG13739 (GeneID 35957) | DRSC06410 | 3.20e6 | 3.71e6 | 3.72e6 |

The list itself, from the first entry:
| target gene | DRSC id | mean viability with MMS | viability with MMS, replicate 1 | viability with MMS, replicate 2 |
| --- | --- | --- | --- | --- |
| CG13344 (GeneID 36541) | DRSC06378 | 3.72e6 | 4.22e6 | 4.22e6 |
| CG12362 (GeneID 39193) | DRSC09884 | 3.45e6 | 4.07e6 | 3.75e6 |
| mRpL13 (GeneID 35145) | DRSC02076 | 3.69e6 | 4.19e6 | 4.13e6 |
| obst-I (GeneID 317966) | DRSC08339 | 3.41e6 | 3.88e6 | 3.88e6 |
| CG4766 (GeneID 31533) | DRSC17736 | 3.89e6 | 4.74e6 | 4.17e6 |
| CG17776 (GeneID 50373) | DRSC18136 | 3.66e6 | 4.08e6 | 4.19e6 |
| brun (GeneID 35325) | DRSC02706 | 3.45e6 | 3.99e6 | 3.81e6 |
| CG13739 (GeneID 35957) | DRSC06410 | 3.20e6 | 3.71e6 | 3.72e6 |
| CG13739 (GeneID 35957) | DRSC23200 | 3.81e6 | 4.36e6 | 4.29e6 |
| CG4820 (GeneID 41344) | DRSC15654 | 3.72e6 | 4.21e6 | 4.09e6 |
| Prosalpha4T2 (GeneID 37910) | DRSC04643 | 3.48e6 | 3.95e6 | 3.91e6 |
| Atg14 (GeneID 43438) | DRSC14421 | 3.59e6 | 4.04e6 | 4.09e6 |
| CG8483 (GeneID 41623) | DRSC16430 | 3.50e6 | 3.97e6 | 3.94e6 |
| indra (GeneID 38159) | DRSC08558 | 3.68e6 | 4.10e6 | 4.25e6 |
| CG3345 (GeneID 33192) | DRSC00596 | 3.67e6 | 4.26e6 | 4.11e6 |
| CG34107 (GeneID 4379852) | DRSC14554 | 3.67e6 | 4.14e6 | 4.09e6 |
| Sod2 (GeneID 36878) | DRSC07554 | 3.54e6 | 3.96e6 | 4.06e6 |
| CG31787 (GeneID 318941) | DRSC01632 | 3.39e6 | 3.98e6 | 3.66e6 |
| CG6154 (GeneID 43184) | DRSC15977 | 3.38e6 | 3.71e6 | 3.89e6 |
| CG7730 (GeneID 39908) | DRSC10909 | 3.72e6 | 4.21e6 | 4.15e6 |
| CG7320 (GeneID 40010) | DRSC10810 | 3.66e6 | 4.11e6 | 4.14e6 |
| ND6 (retired record) (GeneID 192479) | DRSC21271 | 3.58e6 | 3.91e6 | 4.19e6 |
| glo (GeneID 41431) | DRSC16145 | 3.23e6 | 3.77e6 | 3.73e6 |
| swm (GeneID 35235) | DRSC02012 | 3.62e6 | 3.98e6 | 4.26e6 |
| swm (GeneID 35235) | DRSC21831 | 2.47e6 | 3.58e6 | 3.58e6 |
| CG3803 (GeneID 37809) | DRSC04420 | 3.50e6 | 4.02e6 | 3.90e6 |
| Obp56e (GeneID 37267) | DRSC07188 | 3.55e6 | 4.06e6 | 3.99e6 |
| Slip1 (GeneID 43809) | DRSC17146 | 3.54e6 | 4.10e6 | 3.95e6 |
| CG42337 (GeneID 40335) | DRSC11686 | 3.45e6 | 3.85e6 | 3.95e6 |
| CG42337 (GeneID 40335) | DRSC11687 | 2.91e6 | 3.54e6 | 3.55e6 |
| CG42337 (GeneID 40335) | DRSC23099 | 3.54e6 | 3.86e6 | 4.21e6 |
| Gr98b (GeneID 117327) | DRSC21675 | 3.54e6 | 4.01e6 | 4.03e6 |
| CG8773 (GeneID 41634) | DRSC16444 | 3.36e6 | 3.70e6 | 3.88e6 |
| CG5592 (GeneID 38662) | DRSC10524 | 3.38e6 | 3.87e6 | 3.75e6 |
| G9a (GeneID 30971) | DRSC18619 | 3.48e6 | 4.02e6 | 3.89e6 |
| COX7AL (GeneID 40995) | DRSC15313 | 3.38e6 | 3.85e6 | 3.84e6 |
| Ncc69 (GeneID 39410) | DRSC10412 | 3.65e6 | 3.98e6 | 4.31e6 |
| Ncc69 (GeneID 39410) | DRSC10413 | 3.36e6 | 3.77e6 | 3.79e6 |
| lncRNA:CR31044 (GeneID 10178917) | DRSC22451 | 3.68e6 | 4.12e6 | 4.13e6 |
| kek5 (GeneID 32930) | DRSC19438 | 3.92e6 | 4.55e6 | 4.23e6 |
| ATPsynB (GeneID 39143) | DRSC09659 | 3.33e6 | 3.77e6 | 3.83e6 |
| Vha55 (GeneID 41550) | DRSC16896 | 3.51e6 | 3.89e6 | 4.07e6 |
| spt4 (GeneID 36387) | DRSC07696 | 3.59e6 | 4.00e6 | 4.15e6 |
| Mcm10 (GeneID 35390) | DRSC03162 | 3.66e6 | 4.33e6 | 4.01e6 |
| Pat1 (GeneID 31593) | DRSC17750 | 3.44e6 | 3.88e6 | 3.83e6 |
| CG34167 (GeneID 5740831) | DRSC01525 | 3.52e6 | 4.08e6 | 3.92e6 |
| CG14864 (GeneID 41846) | DRSC14987 | 3.34e6 | 3.78e6 | 3.78e6 |
| Galt (GeneID 33935) | DRSC03161 | 3.39e6 | 3.88e6 | 3.69e6 |
| Tim9a (GeneID 32294) | DRSC19753 | 3.54e6 | 4.03e6 | 3.99e6 |
| CG32564 (GeneID 326222) | DRSC19933 | 3.57e6 | 4.02e6 | 4.08e6 |
| Gycbeta100B (GeneID 43682) | DRSC14039 | 3.67e6 | 4.16e6 | 4.06e6 |
| Gycbeta100B (GeneID 43682) | DRSC14040 | 3.67e6 | 4.18e6 | 4.04e6 |
| Gycbeta100B (GeneID 43682) | DRSC16691 | 3.60e6 | 4.05e6 | 4.10e6 |
| CG33791 + CG18170 | DRSC08523 | 3.56e6 | 4.06e6 | 4.00e6 |
| CG33791 + CG18170 | DRSC08601 | 3.54e6 | 4.06e6 | 3.95e6 |
| CG14052 (GeneID 31203) | DRSC17907 | 3.31e6 | 3.72e6 | 3.83e6 |
| CG14052 (GeneID 31203) | DRSC18192 | 3.54e6 | 3.81e6 | 4.22e6 |
| etaTry (GeneID 36217) | DRSC07613 | 3.53e6 | 4.09e6 | 3.98e6 |
| CG8300 (GeneID 31658) | DRSC18426 | 3.41e6 | 3.60e6 | 3.97e6 |
| CG8300 (GeneID 31658) | DRSC23231 | 3.44e6 | 3.88e6 | 3.94e6 |
| CG9368 (GeneID 40135) | DRSC11067 | 3.42e6 | 3.81e6 | 3.92e6 |
| Alg-2 (GeneID 3355106) | DRSC07799 | 3.63e6 | 4.17e6 | 4.02e6 |
| sturkopf (GeneID 38150) | DRSC08637 | 3.68e6 | 4.23e6 | 4.10e6 |
| Drl-2 (GeneID 36436) | DRSC05393 | 3.46e6 | 3.93e6 | 3.97e6 |
| Drl-2 (GeneID 36436) | DRSC06155 | 3.54e6 | 3.96e6 | 4.03e6 |
| Drl-2 (GeneID 36436) | DRSC06858 | 3.54e6 | 4.02e6 | 4.05e6 |
| GalT1 (GeneID 36279) | DRSC22238 | 3.49e6 | 3.93e6 | 3.99e6 |
| robl (GeneID 36963) | DRSC07674 | 3.51e6 | 4.04e6 | 3.91e6 |
